These are yes or no findings as the source states them, for the method shown. Binding seen in cells or lysates may run through a third protein. Here binding means that the protein was enriched with, or labelled near, the bait; the list need not be complete. Tags and fused reporters may be left off the sequences shown.
T1: GPHR-GFP (Dictyostelium discoideum Golgi pH regulator, GFP-tagged) (D. discoideum) (UniProt Q54QM5)
T1 sequence: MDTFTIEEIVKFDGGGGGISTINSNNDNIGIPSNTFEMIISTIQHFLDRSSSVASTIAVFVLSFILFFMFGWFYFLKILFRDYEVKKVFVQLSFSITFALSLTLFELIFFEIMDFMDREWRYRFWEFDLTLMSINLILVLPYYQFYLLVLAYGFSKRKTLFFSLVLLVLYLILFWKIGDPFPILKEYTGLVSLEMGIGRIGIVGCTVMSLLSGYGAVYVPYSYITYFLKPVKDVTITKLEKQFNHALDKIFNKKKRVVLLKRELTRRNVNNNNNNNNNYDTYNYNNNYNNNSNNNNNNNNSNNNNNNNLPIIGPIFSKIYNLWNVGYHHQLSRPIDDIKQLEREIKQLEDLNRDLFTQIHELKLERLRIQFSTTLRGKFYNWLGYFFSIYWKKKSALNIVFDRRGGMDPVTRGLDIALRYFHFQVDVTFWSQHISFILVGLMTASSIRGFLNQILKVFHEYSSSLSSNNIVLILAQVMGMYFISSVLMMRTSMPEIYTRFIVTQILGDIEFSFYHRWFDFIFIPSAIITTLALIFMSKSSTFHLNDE

Amino acid sequences for entries named in this document (tags omitted).
UniProt P54647: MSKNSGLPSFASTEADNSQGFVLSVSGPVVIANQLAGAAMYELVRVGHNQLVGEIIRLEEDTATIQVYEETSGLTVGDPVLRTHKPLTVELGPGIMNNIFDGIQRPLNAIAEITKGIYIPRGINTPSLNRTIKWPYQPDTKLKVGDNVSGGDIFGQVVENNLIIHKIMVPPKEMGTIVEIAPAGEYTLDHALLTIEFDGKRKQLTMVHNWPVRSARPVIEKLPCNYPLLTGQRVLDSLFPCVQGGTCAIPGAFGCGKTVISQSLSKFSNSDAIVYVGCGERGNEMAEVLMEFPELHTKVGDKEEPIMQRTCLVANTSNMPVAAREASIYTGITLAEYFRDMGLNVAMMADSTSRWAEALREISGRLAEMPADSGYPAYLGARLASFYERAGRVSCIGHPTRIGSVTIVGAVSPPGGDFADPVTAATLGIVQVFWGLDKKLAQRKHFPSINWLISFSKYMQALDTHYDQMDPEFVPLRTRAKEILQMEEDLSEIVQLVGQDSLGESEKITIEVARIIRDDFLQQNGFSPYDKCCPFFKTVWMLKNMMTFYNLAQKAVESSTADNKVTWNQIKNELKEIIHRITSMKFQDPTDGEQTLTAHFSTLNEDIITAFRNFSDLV

B1: V-ATPase subunit M (protein, UniProt Q54E04 1-815)
chain: MSFLRPSIWRSSPMQMVQLFVQIEAAHDTVDELGKLGLIQFLDDNEHVNLFQRNFVNEVKRCDDMEKKLKFFEDQVKKEPKLQKLLPDNMLSVVDDDSQMDELEGRFDELESELKQVNANQETLQRNYNELIQLRHVLTKDSVFFQENPNLIEGEGHEHSARSPLLAEDQHVSEVAKQGVKLGFITGVMNTDKMPQFQRSLWRTTRGNNYVKDARIEEEIIDPQTGEETAKTVFIVFFQGERLQQKIKKICESFGANIYDCPDNSFERSNLLQKVTVRITDLYEVLQRSKDHKRQTLAGIVPRLYSWKKKVLLEKSIYHTMNLFDYDVGRKCLIAKGWTPKDKIEEIQLALRTATTRSGALVPSVLSIIKTEGSPPTHFETNKYTSSFQEIVNAYGIAHYREVNPAVLTIVTFPFLFGVMFGDVGHGALLLLSALGLISLEKKLAGKKLNELIQMPFDGRYVLFLMSLFSIYVGFIYNECFSIPMNIFGSQYNLNSTTGLYTYQHTDRVYPVGVDPLWKGAPNELVYYNSFKMKLSIIFGVVQMSVGICFSLLNYLNQKGPIKIVNILTQFVPQMIFLWSIFGYMSVLIILKWVVPYRSFEVDKVDPPFILPTIIAMFLSPGGTPDVVFFSGQGAVQTALLFLALISIPVMLVIKPLFMKRFHFQEVERKKLGHHEEEHDDEALYTGHHGEEFEMGEVFVHQVIHTIEFVLGAVSNTASYLRLWALSLAHSELSSVFWERILIGQVERGNPFLAFVGFGAWLGASVAVLLLMESLSAFLHALRLHWVEFQNKFYIGDGVRFIPYSATRILSEDDE

What follows are molecules tested against T1, GPHR-GFP (Dictyostelium discoideum Golgi pH regulator, GFP-tagged) (D. discoideum) (assay: affinity purification with mass spectrometry; GPHR-GFP (control: GFP) immunoprecipitated from D. discoideum cell lysates with polyclonal anti-GFP antibodies on Protein A-Sepharose; SDS-PAGE, Coomassie-stained bands cut out, LCMS).

binding, binds:
V-ATPase subunit A (from UniProt P54647 1-618)
V-ATPase subunit D (D. discoideum (endogenous))
B1

— publication PMC5536908
